Here are results for 4 molecules from US20190241653A1 (NATIONAL RESEARCH COUNCIL OF CANADA, published 2019).

Changes are numbered by the printed parent chain. Results are given in words; binding and its absence hold for the method and conditions named. Some entries that bind do so weakly or less than the wild type.

The target in this experiment is T1, receptor(s) of FC5 on HBEC-D3 cells (human microvascular brain endothelial cells) (human) (UniProt Q9NV96).
T1 sequence (looked up): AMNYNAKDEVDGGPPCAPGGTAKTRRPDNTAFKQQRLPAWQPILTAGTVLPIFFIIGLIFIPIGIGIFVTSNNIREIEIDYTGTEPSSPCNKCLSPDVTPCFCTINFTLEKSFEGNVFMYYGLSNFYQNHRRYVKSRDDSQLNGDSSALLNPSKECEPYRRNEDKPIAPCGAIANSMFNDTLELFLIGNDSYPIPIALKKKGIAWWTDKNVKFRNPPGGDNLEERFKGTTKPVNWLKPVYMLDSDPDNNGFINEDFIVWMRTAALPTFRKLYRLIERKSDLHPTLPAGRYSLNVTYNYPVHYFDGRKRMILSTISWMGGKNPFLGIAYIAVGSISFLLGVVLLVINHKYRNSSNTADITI
Nature of the experiment: Mirrorball microplate cytometry on HBEC-D3 cells.

B1: FC5-H3 (VHH)
VHH: EVQLVESGGGLVQPGGSLRLSCAASGFKITHYTMGWFRQAPGKGLEFVSRITWGGDNTFYSNSVKGRFTISRDNSKNTVYLQMNSLRAEDTAVYYCAAGSTSTATPLRVDYWGQGTLVTVSS
notes: Humanized variant of FC5, expressed with His5 and c-myc tags; not shown: His5 and c-myc tags
Consider B1, for which the binding result was “binds”.

B2: FC5-H1 (VHH)
VHH: B1 VHH with F37V, F47W, V79L
notes: as for B1
As for B2, the binding entry was “binds”.

B3: FC5-H2 (VHH)
VHH: B1 VHH with F37V, F47W
notes: as for B1
As to B3, the binding result was “binds”.

B4: FC5-H7 (VHH)
VHH: B1 VHH with G44E, L45R, V79L
notes: as for B1
With B4, the binding result is “binds”.
